# Assay results from the supplement of paper PMC12067093, “Discovery and optimisation of a covalent ligand for TRIM25 and its application to targeted protein ubiquitination” (Chemical Science, 2025).
# Some of the results follow.
# Compound: CC1Cc2ccccc2N1C(=O)C1CCCN(C1)C(=O)CCl (mixture of isomers) [TRIM25 ligand 11 (diastereomer mixture)]
# Test: probe-labelled cysteine peptide fold change vs DMSO (competition) (log2 fold change); higher = less target engagement (more negative = stronger competition)
# Settings: THP-1, incubation time: 4 h
# 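Further: competitive chemoproteomic profiling in live THP-1 cells with an iodoacetamide desthiobiotin (IA-DTB) probe, comparing probe-labelled peptide intensities in compound-treated cells against DMSO-treated controls.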
Target,probe-labelled cysteine peptide fold change (10 µM),probe-labelled cysteine peptide fold change (50 µM)
PYCR3_Q53H96_235_SDVCTPGGTTIYGLHALEQGGLR (UniProt Q53H96),0.0407,-0.163
RACK1_P63244_182_VWNLANCK (UniProt P63244),-0.00342,-0.0444
RACK1_P63244_249_YWLCAATGPSIK (UniProt P63244),0.0864,0.0566
RABGAP1_Q9Y3P9_969_QKVDDCER (UniProt Q9Y3P9),-0.0183,0.0662
QSOX2_Q6ZRP7_539_LQWPTPDLCPACHEEIK (UniProt Q6ZRP7),-0.0969,0.012
RABGGTA_Q92696_99_AELGFLESCLR (UniProt Q92696),0.0177,0.117
RAB35_Q15286_110_WLHEINQNCDDVCR (UniProt Q15286),-0.00601,-0.0724
PXN_P49023_387_TWHPEHFVCTHCQEEIGSR (UniProt P49023),-0.213,-0.113
RACGAP1_Q9H0H5_327_VVSHPECR (UniProt Q9H0H5),0.14,0.0172
QDPR_P09417_161_GAVHQLCQSLAGK (UniProt P09417),-0.0291,0.0978
QSOX2_Q6ZRP7_131_NQAVCHDYDIHFYPTFR (UniProt Q6ZRP7),-0.0912,-0.028
RABIF_P47224_97_FLVCADCEIGPIGWHCLDDK (UniProt P47224),0.176,-0.00218
PYGB_P11216_496_WLLLCNPGLADTIVEK (UniProt P11216),0.0579,-0.0203
RACGAP1_Q9H0H5_93_AEADCEK (UniProt Q9H0H5),0.0788,0.135
PYGB_P11216_437_MSVIEEGDCKR (UniProt P11216),-0.132,-0.148

# Reformatted with tabs: part of the list above.
Target	probe-labelled cysteine peptide fold change (10 µM)	probe-labelled cysteine peptide fold change (50 µM)
RABGGTA_Q92696_99_AELGFLESCLR (UniProt Q92696)	0.0177	0.117
QDPR_P09417_161_GAVHQLCQSLAGK (UniProt P09417)	-0.0291	0.0978
QSOX2_Q6ZRP7_131_NQAVCHDYDIHFYPTFR (UniProt Q6ZRP7)	-0.0912	-0.028
PYGB_P11216_437_MSVIEEGDCKR (UniProt P11216)	-0.132	-0.148
